Target: T1, VEGF
T1 chain: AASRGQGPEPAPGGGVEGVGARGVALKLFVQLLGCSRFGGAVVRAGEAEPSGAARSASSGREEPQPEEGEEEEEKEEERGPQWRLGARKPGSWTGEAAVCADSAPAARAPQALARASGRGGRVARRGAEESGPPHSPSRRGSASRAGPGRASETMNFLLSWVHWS
Experiment: SPR; antigen immobilized directly on CM5 chip

Row | Binder | Kd
1 | VG1NTH.GS10X.VC072M (other, also called Fusion 6) HHHHHHHHLHKVKVGKSPPVRGSLSGKVSLPCHFSTMPTLPPSYNTSEFLRIKWSKIEVDKNGKDLKETTVLVAQNGNIKIGQDYKGRVSVPTHPEAVGDASLTVVKLLASDAGLYRCDVMYGIEDTQDTVSLTVDGVVFHYRAATSRYTLNFEAAQKACLDVGAVIATPEQLFAAYEDGFEQCDAGWLADQTVRYPIRAPRVGCYGDKMGKAGVRTYGFRSPQETYDVYCYVDHLDGDVFHLTVPSKFTFEEAAKECENQDARLATVGELQAAWRNGFDQCDYGWLSDASVRHPVTVARAQCGGGLLGVRTLYRFENQTGFPPPDSRFDAYCFKPKEGNSGSGSGSGSGSGSGSGSGSGSGCNIMLPYWGCGRDFECMEQCICQYYQSCG | 0.55 nM
2 | VC072M.GS10X.VG1CTH (other, also called Fusion 5) GCNIMLPYWGCGRDFECMEQCICQYYQSCGGSGSGSGSGSGSGSGSGSGSLHKVKVGKSPPVRGSLSGKVSLPCHFSTMPTLPPSYNTSEFLRIKWSKIEVDKNGKDLKETTVLVAQNGNIKIGQDYKGRVSVPTHPEAVGDASLTVVKLLASDAGLYRCDVMYGIEDTQDTVSLTVDGVVFHYRAATSRYTLNFEAAQKACLDVGAVIATPEQLFAAYEDGFEQCDAGWLADQTVRYPIRAPRVGCYGDKMGKAGVRTYGFRSPQETYDVYCYVDHLDGDVFHLTVPSKFTFEEAAKECENQDARLATVGELQAAWRNGFDQCDYGWLSDASVRHPVTVARAQCGGGLLGVRTLYRFENQTGFPPPDSRFDAYCFKPKEGNSHHHHHHHH | 0.75 nM

— patent US20230279090A1 (Genentech, published 2023)
